This assay concerns the target Strep-tagged α-subunit (sucD) of succinyl-CoA synthetase of Escherichia coli (Escherichia coli (str. K-12 substr. MG1655)) (UniProt P0AGE9). The assay can be described thus: co-purification by Strep-tag affinity chromatography, shown by SDS-PAGE.

Amino acid sequences for entries named in this document (tags omitted).
UniProt P0AGE9: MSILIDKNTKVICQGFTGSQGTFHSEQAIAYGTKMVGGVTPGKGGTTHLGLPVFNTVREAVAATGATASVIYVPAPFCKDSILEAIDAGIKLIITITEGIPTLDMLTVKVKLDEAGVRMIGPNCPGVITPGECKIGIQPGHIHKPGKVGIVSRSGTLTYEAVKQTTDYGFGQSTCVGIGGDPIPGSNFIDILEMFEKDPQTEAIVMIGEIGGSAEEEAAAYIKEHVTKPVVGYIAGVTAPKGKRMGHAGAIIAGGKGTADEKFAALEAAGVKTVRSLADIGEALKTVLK

No constants are given. Whether binding was seen depends on the method and setting. Binding seen in cells or lysates may run through a third protein. Some results given as binding are weak or reduced against the parent protein; the word gives no strength. Where a sequence is shown, tags or fusion partners need not be part of it.

B1: β-subunit (sucC) of succinyl-CoA synthetase of Escherichia coli, without Strep-tag (enzyme)
chain: MNLHEYQAKQLFARYGLPAPVGYACTTPREAEEAASKIGAGPWVVKCQVHAGGRGKAGGVKVVNSKEDIRAFAENWLGKRLVTYQTDANGQPVNQILVEAATDIAKELYLGAVVDRSSRRVVFMASTEGGVEIEKVAEETPHLIHKVALDPLTGPMPYQGRELAFKLGLEGKLVQQFTKIFMGLATIFLERDLALIEINPLVITKQGDLICLDGKLGADGNALFRQPDLREMRDQSQEDPREAQAAQWELNYVALDGNIGCMVNGAGLAMGTMDIVKLHGGEPANFLDVGGGATKERVTEAFKIILSDDKVKAVLVNIFGGIVRCDLIADGIIGAVAEVGVNVPVVVRLEGNNAELGAKKLADSGLNIIAAKGLTDAAQQVVAAVEGK
In the case of B1, the binding entry is given as “binds”.

The values above are taken from patent US20160122788A1.
